Data from paper PMC11148069.

Target: T1, Xenopus Nup93, endogenous (Xenopus (endogenous in egg extract)) (UniProt Q7ZX96)
T1 sequence: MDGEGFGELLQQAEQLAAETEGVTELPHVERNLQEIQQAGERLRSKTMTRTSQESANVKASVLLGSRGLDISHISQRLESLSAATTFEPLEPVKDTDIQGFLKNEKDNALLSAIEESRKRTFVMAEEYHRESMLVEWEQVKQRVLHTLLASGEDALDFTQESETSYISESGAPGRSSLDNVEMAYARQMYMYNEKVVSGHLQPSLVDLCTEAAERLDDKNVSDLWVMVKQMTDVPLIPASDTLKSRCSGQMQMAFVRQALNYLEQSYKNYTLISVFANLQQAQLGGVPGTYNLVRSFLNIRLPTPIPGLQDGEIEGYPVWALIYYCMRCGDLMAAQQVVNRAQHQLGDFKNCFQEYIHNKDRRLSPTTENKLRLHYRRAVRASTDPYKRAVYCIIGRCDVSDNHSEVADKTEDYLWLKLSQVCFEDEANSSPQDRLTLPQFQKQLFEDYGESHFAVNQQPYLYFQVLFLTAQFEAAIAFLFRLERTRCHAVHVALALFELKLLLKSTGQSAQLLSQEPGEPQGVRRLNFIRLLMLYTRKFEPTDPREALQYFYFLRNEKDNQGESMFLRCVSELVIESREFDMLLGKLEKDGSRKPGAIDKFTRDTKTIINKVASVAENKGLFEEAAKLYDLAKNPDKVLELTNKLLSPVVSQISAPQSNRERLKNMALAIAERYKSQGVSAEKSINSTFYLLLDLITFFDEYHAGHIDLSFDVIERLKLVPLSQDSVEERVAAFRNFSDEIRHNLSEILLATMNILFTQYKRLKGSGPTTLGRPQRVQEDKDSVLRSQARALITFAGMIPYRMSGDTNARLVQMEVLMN
Experiment: pull-down; proteins co-purifying with the Nup that was captured by the immobilised nanobody from HeLa lysate or Xenopus egg extract; SDS-PAGE/Coomassie, identities confirmed by mass spectrometry

Xenopus Nup188, endogenous was tested, and the binding was “binds”.
Xenopus Nup205, endogenous was tested, and the binding was “binds”.

These are yes or no findings as the source states them, for the method shown. In cells and extracts the contact can be indirect. Binding calls can cover weak binding; strength is not graded here.
